Source: paper doi:10.1101/2025.04.14.648762
These are yes or no findings as the source states them, for the method shown. A result given as binding can be weak or reduced; the word gives no strength.

The chains behind the UniProt entries cited, without tags or fusion partners. Where a name states a change or a piece, a line headed by the entry shows the natural chain unless it says otherwise.
UniProt P25098: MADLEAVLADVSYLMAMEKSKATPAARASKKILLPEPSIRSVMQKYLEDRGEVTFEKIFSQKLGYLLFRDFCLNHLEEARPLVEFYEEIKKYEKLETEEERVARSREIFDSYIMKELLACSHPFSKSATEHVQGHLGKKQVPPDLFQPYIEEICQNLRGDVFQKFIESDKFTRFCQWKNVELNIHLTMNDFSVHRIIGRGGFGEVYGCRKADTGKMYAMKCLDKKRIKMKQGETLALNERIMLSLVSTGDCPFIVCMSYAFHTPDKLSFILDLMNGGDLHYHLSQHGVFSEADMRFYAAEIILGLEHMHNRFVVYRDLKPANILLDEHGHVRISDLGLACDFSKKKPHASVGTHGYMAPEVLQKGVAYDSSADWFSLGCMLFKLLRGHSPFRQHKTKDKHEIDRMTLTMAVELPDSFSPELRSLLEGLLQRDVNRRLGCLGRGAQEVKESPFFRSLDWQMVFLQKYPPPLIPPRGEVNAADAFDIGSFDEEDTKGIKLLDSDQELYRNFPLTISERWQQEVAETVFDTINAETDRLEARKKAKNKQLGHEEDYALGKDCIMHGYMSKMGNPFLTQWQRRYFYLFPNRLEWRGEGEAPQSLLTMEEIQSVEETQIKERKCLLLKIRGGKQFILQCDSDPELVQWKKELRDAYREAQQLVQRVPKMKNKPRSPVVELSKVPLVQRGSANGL
UniProt Q8TCU6: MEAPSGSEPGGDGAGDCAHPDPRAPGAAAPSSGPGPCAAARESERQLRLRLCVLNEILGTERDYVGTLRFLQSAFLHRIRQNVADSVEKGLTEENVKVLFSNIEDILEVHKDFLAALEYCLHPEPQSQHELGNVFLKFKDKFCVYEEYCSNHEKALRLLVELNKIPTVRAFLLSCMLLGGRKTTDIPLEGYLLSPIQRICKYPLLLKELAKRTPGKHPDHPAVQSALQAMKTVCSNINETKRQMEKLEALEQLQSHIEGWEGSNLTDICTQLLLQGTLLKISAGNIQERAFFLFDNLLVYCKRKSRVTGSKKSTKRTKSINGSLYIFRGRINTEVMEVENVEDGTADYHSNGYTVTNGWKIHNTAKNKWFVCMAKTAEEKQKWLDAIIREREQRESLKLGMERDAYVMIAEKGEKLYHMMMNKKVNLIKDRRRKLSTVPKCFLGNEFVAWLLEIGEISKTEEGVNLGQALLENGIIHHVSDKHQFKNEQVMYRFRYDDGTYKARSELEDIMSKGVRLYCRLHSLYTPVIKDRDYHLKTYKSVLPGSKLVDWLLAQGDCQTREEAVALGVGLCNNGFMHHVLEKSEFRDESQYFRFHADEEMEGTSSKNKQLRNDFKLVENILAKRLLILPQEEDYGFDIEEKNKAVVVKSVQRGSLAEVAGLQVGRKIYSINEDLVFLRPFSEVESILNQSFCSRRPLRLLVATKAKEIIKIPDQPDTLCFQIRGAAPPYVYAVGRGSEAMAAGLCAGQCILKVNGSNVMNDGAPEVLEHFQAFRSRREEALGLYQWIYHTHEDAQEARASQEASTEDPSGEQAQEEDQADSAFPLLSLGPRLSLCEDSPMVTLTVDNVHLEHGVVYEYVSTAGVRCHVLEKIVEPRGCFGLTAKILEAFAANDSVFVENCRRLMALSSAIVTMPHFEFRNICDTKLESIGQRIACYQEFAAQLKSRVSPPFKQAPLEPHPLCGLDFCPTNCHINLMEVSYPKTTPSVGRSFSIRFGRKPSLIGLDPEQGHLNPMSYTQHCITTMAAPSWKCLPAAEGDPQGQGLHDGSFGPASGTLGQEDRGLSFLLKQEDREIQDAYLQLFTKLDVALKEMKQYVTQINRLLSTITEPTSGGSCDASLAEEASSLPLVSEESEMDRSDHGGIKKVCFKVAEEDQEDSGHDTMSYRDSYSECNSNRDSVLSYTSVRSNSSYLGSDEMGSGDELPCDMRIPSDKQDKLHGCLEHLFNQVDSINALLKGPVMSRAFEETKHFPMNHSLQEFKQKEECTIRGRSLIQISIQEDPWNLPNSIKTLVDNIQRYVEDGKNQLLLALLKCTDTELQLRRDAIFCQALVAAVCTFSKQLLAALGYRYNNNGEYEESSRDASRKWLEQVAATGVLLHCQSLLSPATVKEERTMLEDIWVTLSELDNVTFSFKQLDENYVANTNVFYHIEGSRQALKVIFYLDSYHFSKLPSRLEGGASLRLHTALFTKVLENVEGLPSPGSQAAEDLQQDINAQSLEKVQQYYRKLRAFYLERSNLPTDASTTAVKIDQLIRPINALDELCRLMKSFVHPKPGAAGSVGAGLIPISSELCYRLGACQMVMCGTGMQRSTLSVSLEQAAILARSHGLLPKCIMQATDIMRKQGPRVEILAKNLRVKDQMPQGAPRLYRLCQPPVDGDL

Molecular target: GST-Grk2 (human) (UniProt P25098)
Assay: pull-down

Row | binding | Substance
1 | binds | EE-P-Rex1 ΔPDZ (from UniProt Q8TCU6)
2 | binds | EE-P-Rex1 ΔPH (from UniProt Q8TCU6)
